Experimental data taken from patent US20050025760A1 (KEIO UNIVERSITY, published 2005).
Changes are numbered by the printed parent chain. These are yes or no findings as the source states them, for the method shown. Some binding calls cover weakened binding; strength is not graded here.

Protein sequences, listed by entry. Tags and fused reporters are not part of them. Lines headed by an entry give the natural chain unless they say otherwise; changes in a name come on top. Chains listed by the source or under a name are the forms on record and can include a tag or linker.
Dsg1-M7-8 (Q02413, form named): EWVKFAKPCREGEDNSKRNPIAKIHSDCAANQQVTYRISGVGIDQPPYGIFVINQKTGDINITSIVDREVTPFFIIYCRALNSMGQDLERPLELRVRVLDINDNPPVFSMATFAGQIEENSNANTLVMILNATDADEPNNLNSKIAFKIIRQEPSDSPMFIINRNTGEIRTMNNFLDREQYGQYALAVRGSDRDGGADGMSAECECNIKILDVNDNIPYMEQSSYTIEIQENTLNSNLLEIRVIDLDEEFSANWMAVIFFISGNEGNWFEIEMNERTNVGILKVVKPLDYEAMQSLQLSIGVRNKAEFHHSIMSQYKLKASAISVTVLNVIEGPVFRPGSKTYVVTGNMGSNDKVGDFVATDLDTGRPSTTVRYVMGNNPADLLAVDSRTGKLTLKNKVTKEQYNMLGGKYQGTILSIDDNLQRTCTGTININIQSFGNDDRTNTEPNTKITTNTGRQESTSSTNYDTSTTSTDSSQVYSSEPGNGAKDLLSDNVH

Key:
Assay in all cases: immunoprecipitation of point-mutated molecules (FIG. 5)
Dsg3-M8 (human) = target: T1, Dsg3-M8 (human) (UniProt P32926)
T1 sequence (looked up): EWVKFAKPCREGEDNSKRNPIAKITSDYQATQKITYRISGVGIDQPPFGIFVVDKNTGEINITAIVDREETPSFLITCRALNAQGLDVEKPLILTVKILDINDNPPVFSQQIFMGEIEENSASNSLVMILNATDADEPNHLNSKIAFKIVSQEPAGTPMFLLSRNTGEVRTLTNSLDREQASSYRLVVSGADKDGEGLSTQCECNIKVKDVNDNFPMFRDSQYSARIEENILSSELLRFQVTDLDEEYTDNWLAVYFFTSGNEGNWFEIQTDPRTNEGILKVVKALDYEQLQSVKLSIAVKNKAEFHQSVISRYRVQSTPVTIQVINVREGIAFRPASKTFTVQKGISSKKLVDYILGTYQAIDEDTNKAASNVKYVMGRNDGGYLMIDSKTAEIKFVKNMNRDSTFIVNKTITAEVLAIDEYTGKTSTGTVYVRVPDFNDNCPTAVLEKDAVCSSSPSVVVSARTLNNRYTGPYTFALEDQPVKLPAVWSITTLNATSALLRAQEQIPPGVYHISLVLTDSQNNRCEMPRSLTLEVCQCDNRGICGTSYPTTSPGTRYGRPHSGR

Dsg3-M1-2-3 (human) = target: T2, Dsg3-M1-2-3 (human) (UniProt P32926)
T2 sequence (looked up): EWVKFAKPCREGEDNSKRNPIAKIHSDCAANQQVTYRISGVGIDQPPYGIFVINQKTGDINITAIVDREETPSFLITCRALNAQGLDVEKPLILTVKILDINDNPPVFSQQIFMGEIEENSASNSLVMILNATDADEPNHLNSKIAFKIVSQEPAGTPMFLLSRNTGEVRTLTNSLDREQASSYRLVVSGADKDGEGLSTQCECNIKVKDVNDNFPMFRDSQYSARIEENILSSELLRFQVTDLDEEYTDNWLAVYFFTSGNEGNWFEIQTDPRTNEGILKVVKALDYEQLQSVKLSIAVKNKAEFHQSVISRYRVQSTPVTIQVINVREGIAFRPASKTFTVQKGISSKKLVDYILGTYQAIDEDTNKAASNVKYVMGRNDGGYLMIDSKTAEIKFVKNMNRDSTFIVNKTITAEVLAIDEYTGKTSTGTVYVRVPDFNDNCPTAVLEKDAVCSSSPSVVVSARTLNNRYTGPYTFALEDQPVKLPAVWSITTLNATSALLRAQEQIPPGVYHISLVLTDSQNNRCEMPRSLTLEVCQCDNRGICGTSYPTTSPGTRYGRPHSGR

Dsg1-M7-8 (human) = Dsg1-M7-8 (human) (UniProt Q02413)
Dsg3-M1-2 (human) = target: T3, Dsg3-M1-2 (human) (UniProt P32926)
T3 sequence (looked up): T2 sequence (looked up) with Y48F, I53V, N54D, Q55K, K56N

Measured: binding

B1: anti-Dsg3 monoclonal antibody AK23 (antibody, mouse IgG1, V domains shown)
VH: QVQLQQSGTELVKPGASVKLSCKSSGYTFTSYWINWVKQRPGQGLEWIGNINPSNGGINYNEKFKSKATLTVDKSSSTAYMQLKSLTSEDSAVYYCARGGYDGYPWGQGTTVTVS
VL: DIQMTQSPKFLLVSAGDRVTITCKASQSVSYDVAWYQQKPGQSPKLLISYASNRYTGVPDRFTGSGYGSDFTFTISTVQTEDLAVYFCQQDYSSPWTFGGGTKLELKR
notes: Mouse IgG1 kappa hybridoma antibody
binds: all assays above
